The record followed here is paper PMC11519374.

The chains behind the UniProt entries cited, without tags or fusion partners. Where a name states a change or a piece, a line headed by the entry shows the natural chain unless it says otherwise.
UniProt Q9BST9: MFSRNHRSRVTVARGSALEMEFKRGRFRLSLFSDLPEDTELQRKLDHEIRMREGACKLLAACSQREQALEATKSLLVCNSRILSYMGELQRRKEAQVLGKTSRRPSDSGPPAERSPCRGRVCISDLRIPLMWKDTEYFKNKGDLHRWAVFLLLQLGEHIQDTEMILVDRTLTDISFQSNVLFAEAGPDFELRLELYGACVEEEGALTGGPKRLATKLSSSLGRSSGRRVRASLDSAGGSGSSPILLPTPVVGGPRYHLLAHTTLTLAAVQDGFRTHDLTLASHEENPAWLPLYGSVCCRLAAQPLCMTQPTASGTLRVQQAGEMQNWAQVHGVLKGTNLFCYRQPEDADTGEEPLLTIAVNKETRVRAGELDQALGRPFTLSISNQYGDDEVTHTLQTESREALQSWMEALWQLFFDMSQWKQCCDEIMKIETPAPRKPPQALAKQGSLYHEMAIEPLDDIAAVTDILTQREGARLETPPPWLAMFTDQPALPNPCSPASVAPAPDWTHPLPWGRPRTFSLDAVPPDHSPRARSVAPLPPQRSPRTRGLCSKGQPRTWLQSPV
UniProt P61586: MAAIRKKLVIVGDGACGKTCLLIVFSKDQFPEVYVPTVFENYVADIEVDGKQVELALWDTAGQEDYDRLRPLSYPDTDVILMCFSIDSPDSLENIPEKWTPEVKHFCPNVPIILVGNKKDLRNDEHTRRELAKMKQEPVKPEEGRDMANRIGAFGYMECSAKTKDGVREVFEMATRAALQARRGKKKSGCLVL

These are yes or no findings as the source states them, for the method shown. In cells and extracts the contact can be indirect. These calls come from enrichment with a bait or labelling near it, and not all partners need be listed.

This assay deals with GST-rhotekin-Rho binding domain (UniProt Q9BST9). Briefly: affinity purification with mass spectrometry; purified GST-RBD on beads incubated with lysates of control and TBC1D3C-expressing U2OS cells, 3 h at 4°C; bands of Rho GTPase size cut from Coomassie-stained SDS-PAGE; only the target purified.

In the case of RhoA (from UniProt P61586 1-193), the binding result is on record as “binds”.
